# Primary screen of a compound library

Sequences of proteins named here, by UniProt entry; tags and fusion partners are left off. Residues count along the entry.
UniProt Q4DA54, 1-478: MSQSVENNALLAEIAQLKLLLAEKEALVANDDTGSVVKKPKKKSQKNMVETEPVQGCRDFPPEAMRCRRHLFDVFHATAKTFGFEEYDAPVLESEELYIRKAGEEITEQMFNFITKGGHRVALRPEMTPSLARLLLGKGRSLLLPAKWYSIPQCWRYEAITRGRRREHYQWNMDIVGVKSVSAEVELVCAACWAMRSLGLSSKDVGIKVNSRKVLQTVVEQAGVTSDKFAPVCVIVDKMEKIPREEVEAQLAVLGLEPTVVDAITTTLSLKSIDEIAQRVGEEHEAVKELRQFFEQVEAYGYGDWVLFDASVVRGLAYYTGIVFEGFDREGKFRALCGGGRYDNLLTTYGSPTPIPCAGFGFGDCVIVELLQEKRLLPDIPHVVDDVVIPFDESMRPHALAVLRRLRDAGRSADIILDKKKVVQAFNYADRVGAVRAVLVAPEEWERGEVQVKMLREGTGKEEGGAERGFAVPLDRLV
UniProt I6X8D2, whole entry: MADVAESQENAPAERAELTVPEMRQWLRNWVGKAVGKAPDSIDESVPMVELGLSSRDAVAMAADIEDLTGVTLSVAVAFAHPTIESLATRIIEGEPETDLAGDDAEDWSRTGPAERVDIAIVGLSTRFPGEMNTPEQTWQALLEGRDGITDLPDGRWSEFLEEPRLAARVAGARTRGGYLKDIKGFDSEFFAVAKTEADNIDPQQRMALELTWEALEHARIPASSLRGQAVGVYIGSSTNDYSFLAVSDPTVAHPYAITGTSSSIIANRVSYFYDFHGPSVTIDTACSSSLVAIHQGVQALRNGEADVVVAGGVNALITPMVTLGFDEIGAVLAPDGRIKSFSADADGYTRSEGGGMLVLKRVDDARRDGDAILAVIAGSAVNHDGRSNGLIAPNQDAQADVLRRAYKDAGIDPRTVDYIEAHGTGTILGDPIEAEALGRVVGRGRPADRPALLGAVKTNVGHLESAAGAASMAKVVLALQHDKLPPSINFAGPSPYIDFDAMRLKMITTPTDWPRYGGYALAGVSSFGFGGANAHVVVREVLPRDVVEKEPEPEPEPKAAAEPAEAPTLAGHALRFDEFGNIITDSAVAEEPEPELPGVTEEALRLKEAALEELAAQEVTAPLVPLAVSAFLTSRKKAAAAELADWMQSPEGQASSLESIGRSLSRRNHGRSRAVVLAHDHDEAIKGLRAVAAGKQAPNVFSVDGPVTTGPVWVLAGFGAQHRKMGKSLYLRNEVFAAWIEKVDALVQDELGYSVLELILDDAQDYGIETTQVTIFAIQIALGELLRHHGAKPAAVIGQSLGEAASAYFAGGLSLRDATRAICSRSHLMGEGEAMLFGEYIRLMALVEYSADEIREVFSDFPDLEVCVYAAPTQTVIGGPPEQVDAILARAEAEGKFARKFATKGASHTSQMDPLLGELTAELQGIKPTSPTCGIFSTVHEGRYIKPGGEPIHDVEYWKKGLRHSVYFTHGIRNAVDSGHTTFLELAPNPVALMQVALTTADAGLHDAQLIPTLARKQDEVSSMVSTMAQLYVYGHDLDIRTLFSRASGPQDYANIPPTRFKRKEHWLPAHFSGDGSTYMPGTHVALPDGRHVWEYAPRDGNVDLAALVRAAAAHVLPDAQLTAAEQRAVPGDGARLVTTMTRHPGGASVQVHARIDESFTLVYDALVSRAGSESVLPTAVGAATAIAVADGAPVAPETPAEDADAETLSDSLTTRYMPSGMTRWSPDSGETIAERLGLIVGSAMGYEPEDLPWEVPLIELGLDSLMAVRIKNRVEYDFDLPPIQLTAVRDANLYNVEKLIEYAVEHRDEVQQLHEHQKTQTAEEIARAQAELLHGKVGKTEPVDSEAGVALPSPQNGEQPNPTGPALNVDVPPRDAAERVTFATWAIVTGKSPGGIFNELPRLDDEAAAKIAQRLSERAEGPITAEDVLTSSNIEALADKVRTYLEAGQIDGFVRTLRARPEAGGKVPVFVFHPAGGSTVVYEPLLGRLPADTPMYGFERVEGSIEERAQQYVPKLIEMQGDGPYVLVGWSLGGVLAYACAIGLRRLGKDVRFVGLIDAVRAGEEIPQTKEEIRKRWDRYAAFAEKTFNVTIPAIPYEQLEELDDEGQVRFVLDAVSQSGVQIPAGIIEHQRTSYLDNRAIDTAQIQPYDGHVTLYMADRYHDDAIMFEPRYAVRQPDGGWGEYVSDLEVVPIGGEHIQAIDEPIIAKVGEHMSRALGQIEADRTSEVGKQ
UniProt P9WNZ1, whole entry: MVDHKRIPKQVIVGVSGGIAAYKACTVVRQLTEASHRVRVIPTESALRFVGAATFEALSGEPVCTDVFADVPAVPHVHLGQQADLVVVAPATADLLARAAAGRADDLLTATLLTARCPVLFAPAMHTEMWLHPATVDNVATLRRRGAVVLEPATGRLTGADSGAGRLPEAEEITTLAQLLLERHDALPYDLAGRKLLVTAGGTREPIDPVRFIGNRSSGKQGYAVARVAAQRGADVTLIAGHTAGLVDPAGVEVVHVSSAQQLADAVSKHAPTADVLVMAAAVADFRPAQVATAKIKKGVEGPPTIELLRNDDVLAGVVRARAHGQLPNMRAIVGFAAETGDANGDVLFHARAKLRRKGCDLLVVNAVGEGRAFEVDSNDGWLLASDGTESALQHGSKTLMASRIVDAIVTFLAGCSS
UniProt Q8IDJ8, 1-583: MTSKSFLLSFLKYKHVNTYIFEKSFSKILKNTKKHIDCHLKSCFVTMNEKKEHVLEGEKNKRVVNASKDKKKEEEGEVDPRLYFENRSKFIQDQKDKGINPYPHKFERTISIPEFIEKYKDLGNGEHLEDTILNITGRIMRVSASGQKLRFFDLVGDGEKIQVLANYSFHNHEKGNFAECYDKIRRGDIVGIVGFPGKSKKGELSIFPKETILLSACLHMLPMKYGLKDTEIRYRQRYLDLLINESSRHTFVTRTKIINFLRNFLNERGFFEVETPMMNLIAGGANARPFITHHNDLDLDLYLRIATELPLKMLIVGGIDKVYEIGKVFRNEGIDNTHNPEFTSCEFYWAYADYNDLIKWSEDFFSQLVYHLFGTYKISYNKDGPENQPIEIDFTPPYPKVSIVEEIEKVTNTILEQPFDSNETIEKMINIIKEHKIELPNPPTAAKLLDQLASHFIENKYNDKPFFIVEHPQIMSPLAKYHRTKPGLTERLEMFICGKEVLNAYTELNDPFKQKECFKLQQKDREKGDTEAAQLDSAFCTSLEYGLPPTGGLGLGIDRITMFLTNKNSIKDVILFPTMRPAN
UniProt P9WFT3, whole entry: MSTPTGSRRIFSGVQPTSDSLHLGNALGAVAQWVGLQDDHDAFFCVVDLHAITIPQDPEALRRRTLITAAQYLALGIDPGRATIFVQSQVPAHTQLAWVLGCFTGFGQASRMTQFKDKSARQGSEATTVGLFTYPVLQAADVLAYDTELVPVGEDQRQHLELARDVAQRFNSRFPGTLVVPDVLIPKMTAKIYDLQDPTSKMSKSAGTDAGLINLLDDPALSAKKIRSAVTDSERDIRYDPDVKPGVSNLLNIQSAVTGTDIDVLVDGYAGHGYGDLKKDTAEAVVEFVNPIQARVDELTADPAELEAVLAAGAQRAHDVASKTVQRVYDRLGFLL

Measurements from “University of Dundee, Small-Polar-MMV Screening Library” (2021), ChEMBL document CHEMBL3988442.

TcHisRS: 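Histidine-tRNA ligase, Trypanosoma cruzi CL Brener (UniProt Q4DA54). Enzyme assay of histidyl-tRNA synthetase; the read-out is not stated. Compounds at 30 µM. Direction is inferred from retests: higher values go with stronger inhibition. Of about 69,000 compounds tested this way, about 31 (0.045%) reached 50% or more in at least one test.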
Pks13 thioesterase: 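Enzyme assay of the thioesterase domain of polyketide synthase 13; the read-out is not stated. Target: Polyketide synthase Pks13, Mycobacterium tuberculosis (UniProt I6X8D2). Concentration: 30 µM. Higher reads as stronger inhibition (inferred from which compounds were picked for retests). Of about 67,000 compounds tested this way, about 300 (0.46%) reached 50% or more in at least one test.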
CoaBC: 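Coenzyme A biosynthesis protein CoaBC, Mycobacterium tuberculosis (UniProt P9WNZ1). Enzyme assay of CoaBC with a phosphate dye (Biomol Green) read at 650 nm. Tested at 30 µM. Direction is inferred from only a few compounds that gave an IC50; most scored high, so higher reads as stronger inhibition. Most strong results did not repeat in a second test. About 67,000 compounds were tested under these conditions; 0.06% (about 40) showed 50% or more at least once.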
Leishmania in macrophages: 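Cell assay of Leishmania donovani living inside macrophages; the read-out is not stated. Compounds at 30 µM. The record gives no direction; compounds that gave an IC50 in retests scored well above the rest, so higher reads as stronger inhibition. Size under these conditions: about 69,000 compounds, about 1,000 of them at 50% or above in at least one test.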
PfKRS1: 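Lysine-tRNA ligase, Plasmodium falciparum 3D7 (UniProt Q8IDJ8). Enzyme assay of the cytosolic lysyl-tRNA synthetase in 384-well plates, read by luminescence. Compounds at 30 µM. Higher reads as stronger inhibition, judged from the few compounds that gave an IC50. Of about 69,000 compounds tested this way, about 49 (0.071%) reached 50% or more in at least one test.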
MtTrpRS: 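Tryptophan-tRNA ligase, Mycobacterium tuberculosis (UniProt P9WFT3). Enzyme assay of tryptophanyl-tRNA synthetase; the read-out is not stated. Compounds at 10 µM. Direction is not recorded; retested compounds ran higher, which suggests that high means inhibition. About 65,000 compounds were tested under these conditions; 0.098% (about 64) showed 50% or more at least once.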

The filed quantity is “Percent Effect” (%).
The controls that fix the scale are not given in the record; negative values are as filed.
Compounds were drawn at random from those tested, without regard to their results.
Two or more numbers in one place are separate tests of the same structure; such repeats can differ widely.
A dash means the value is not listed here; it may have been measured.

| # | compound | TcHisRS | Pks13 thioesterase | CoaBC | Leishmania in macrophages | PfKRS1 | MtTrpRS |
|---|---|---|---|---|---|---|---|
| 1 | `O=C(O)C(F)(F)F.O=C(O)C(F)(F)F.[H][C@@]12CN(Cc3cccs3)C[C@@]1([H])N(Cc1ccncc1)C(=O)CO2` | - | - | - | -29.11 | - | - |
| 2 | `COCc1cncc2c1CCN(C(=O)c1ccsc1)C2` | 5.473 | 29.34 | - | -12.08 | 6.935 | 2.212 |
| 3 | `Cc1nc(C2CCCN(C(=O)c3cc(Cl)c[nH]3)C2)no1` (centres undefined) | 0 | -29.04 | 2.571 | 11.07 | 4.468 | -1.338 |
| 4 | `CC(C)NC(=O)NCC(Cc1ccc(F)cc1)C(N)=O` (centres undefined) | 1.508 | -11.32 | -4.452 | 2.061 | -1.105 | -2.348 |
| 5 | `N#Cc1cn[nH]c1NCc1cc(Br)ccc1O` | 0.9901 | -25.3 | 2.427 | 16.29 | 1.322 | 288.1 |
| 6 | `CCc1nc(C)c(C(C)N(C)CCOC)s1` (centres undefined) | 5.419 | -5.042 | -0.9494 | 12.73 | 7.515 | 0.07788 |
| 7 | `CCOc1ccc(NC(=O)N2CCC(n3cncn3)CC2)cc1Cl` | 6.466 | -4.29 | 4.943 | -3.205 | 1.86 | -0.8961 |
| 8 | `Cc1nc2c(c(N3CCN(Cc4ccco4)CC3)n1)CCNCC2` | 3.96 | - | -15.5 | 1.436 | 2.821 | -0.5622 |
| 9 | `CC(C)C[C@@H](CO)n1cc(-c2cncnc2)nn1` | 0.8 | - | 0.2165 | -9.496 | 2.796 | -1.449 |
| 10 | `Cc1occc1CNC(=O)C1CCCN1C(=O)C1CC1` (centres undefined) | 2.041 | -16.13 | 7.127 | 3.397 | 1.369 | 2.183 |
| 11 | `CC(C)c1cc(C2CCN(C(=O)Cn3nc4ccccc4n3)CC2)[nH]n1` | 0 | -12.62 | -2.217 | 8.39 | 9.013 | 3.35 |
| 12 | `c1cnnc(N2CCCC(NCc3cccc4c3OCCO4)C2)c1` (centres undefined) | 6.105 | -23.14 | -2.445 | 13.51 | 0.3035 | -2.966 |
| 13 | `c1ncn(CC2CCCN2Cc2csc(C3CCCCC3)n2)n1` (centres undefined) | 21.71 | 0.6025 | 0.5249 | 37.66 | 1.868 | -3.438 |
| 14 | `FC(F)(F)c1cc(C2CCCN(Cc3ccncc3)C2)n[nH]1` (centres undefined) | 4.242 | -24.23 | 3.893 | -3.274 | -0.2538 | 2.687 |
| 15 | `O=C(Nc1ncnc2c1CCC2)c1cccc(F)c1` | 6.736 | -25.13 | -7.071 | 17.61 | 2.207 | 3.75 |
| 16 | `O=C(CN1CCSCC1c1ccccc1)N1CCCC1` (centres undefined) | 0 | -13.79 | 6.375 | -14.01 | 2.863 | 13.47 |
| 17 | `CN(C)C(=O)CN1C[C@@H]2CC[C@H](C1)N(Cc1ccccc1C#N)C2` | 1.961 | 6.987 | 1.22 | - | 3.938 | -0.4515 |
| 18 | `O=C(O)C(F)(F)F.[H][C@@]12OCCC[C@]1([H])N(C)C[C@@H]2NC(=O)c1cscn1` | - | - | - | 54.94 | - | - |
| 19 | `CN(Cc1ccc2c(c1)OCCO2)Cc1nnnn1-c1ccccc1` | 2.484 | 1.257 | 1.392 | -13.35 | 2.809 | 0.5424 |
| 20 | `CCOCC(=O)N1CC[C@@H]2O[C@@H](C)C[C@H]2C1` | 3.922 | -8.519 | 5.5 | - | 2.15 | -4.535 |
| 21 | `NC(=O)CN1CCC(NC(=O)COc2ccc(Cl)c(Cl)c2)CC1` | 7.692 | -11.87 | -4.29 | 29.11 | -0.6565 | 3.123 |
| 22 | `O=C(c1cc[nH]n1)N1CCC2(CC1)CC(Oc1cccnc1)CO2` (centres undefined) | 5.6 | 39.55 | 9.979 | - | 4.368 | -0.4188 |
| 23 | `Cc1nn(C)c(C)c1C1CCCN1Cc1nc(-c2ccccn2)no1` (centres undefined) | 2.907 | 5.433 | 17.76 | 9.933 | 2.976 | -2.394 |
| 24 | `Cc1cc(NC(=O)N(C)C2CCN(c3ccccc3F)C2=O)n(C)n1` (centres undefined) | 6.806 | -24.02 | 1.499 | 7.365 | 7.9 | 1.87 |
| 25 | `CC(=O)N1CCN(C(=O)CNc2cccc(OC(F)F)c2C)CC1` | -1.111 | -9.867 | 17.65 | 18.88 | -3.069 | 19.04 |
| 26 | `CC(C)CC(=O)Nc1cc(C(=O)N(C)C(C)C)ccc1Cl` | -0.5128 | -14.99 | 1.242 | 20.64 | -0.09596 | -4.294 |
| 27 | `CCN1CCOCC2(CCCN(C(=O)c3conc3C)C2)C1` (centres undefined) | 2.404 | -16.11 | -4.235 | - | 3.076 | 2.985 |
| 28 | `CCc1nc(CSC2CCCN(c3cnn(C)c3)C2=O)cs1` (centres undefined) | 4.969 | 4.468 | 8.734 | 20.08 | -1.393 | 3.661 |
| 29 | `Cc1ccccc1C1CCN(CCn2cc(-c3nccs3)nn2)C1` (centres undefined) | 2.597 | 2.952 | - | -3.826 | 2.591 | 9.598 |
| 30 | `Cc1nsc(N2CCCN(CC(=O)N(C)C3CC3)CC2)n1` | 0 | -11.02 | 4.654 | 9.088 | 3.239 | 1.905 |
| 31 | `OC(CN1CCOCC1)c1ccc(Br)cc1` (centres undefined) | 3.509 | -7.907 | 1.965 | 27.93 | 0.4158 | 1.22 |
| 32 | `O=C(O)C(F)(F)F.O=C(O)C(F)(F)F.O=C(O)C(F)(F)F.[H][C@]12C[C@@H](CN3CCCC3)N(c3nccs3)[C@@]1([H])CCN(C)C2` | - | - | - | 21.62 | - | - |
| 33 | `CN1C[C@H](O)[C@]2(CCN(C(=O)COc3ccccc3)C2)S1(=O)=O` | -1.156 | 16.01 | 1.104 | 12.11 | 1.45 | - |
| 34 | `C[C@]1(O)CCN(Cc2nccs2)C[C@@H]1Oc1cccc(F)c1` | 12.09 | 9.253 | -2.67 | 18.51 & 16.69 | 2.871 | - |
| 35 | `O=C(NC[C@]12COC[C@H]1CN(CC1CCOCC1)C2)c1ccco1` | 6.122 | -8.603 | 2.843 | - | 1.503 | -2.35 |
| 36 | `O=C(NC1CC1)N1CCc2ncnc(-c3ccncc3)c2CC1` | 4.865 | -0.5035 | 1.904 | - | -1.092 | 8.29 |
| 37 | `CCc1cc(CNC(=O)NCc2ccc(N3CCCCC3)cc2)on1` | -3.922 | 2.68 | 3.902 | -6.06 | 0.2777 | -3.01 |
| 38 | `CC(Oc1ccc2c(c1)OCO2)C(=O)N1CCC(c2ncc[nH]2)CC1` (centres undefined) | 4.348 | 3.089 | 0.8168 | 29.08 | 1.093 | 3.92 |
| 39 | `Nc1cc(-c2c[nH]nc2C2CCN(C(=O)C3CCCC3)C2)ccn1` (centres undefined) | 5.65 | 5.13 | 13.56 | 42.83 | 0.2724 | -0.4569 |
| 40 | `Cn1cc(CN2C[C@H](Oc3ncccc3F)[C@H]3OCCC[C@H]32)cn1` | 8.537 | 4.637 | 1.754 | - | 8.1 | 3.458 |
| 41 | `COCC1CN(C(=O)N2CCCC2)Cc2cnn(CC3CCCC3)c21` (centres undefined) | 5.376 | -40.27 | 17.89 | -2.944 & 17.69 | -4.836 | 5.179 |
| 42 | `O=C(O)C(F)(F)F.[H][C@]12CCN(c3ccccn3)[C@@]1([H])CC[C@H](COCC(=O)N1CCCC1)O2` | - | - | - | -22.82 | - | - |
| 43 | `COc1cccc2c1OCC(CNC(=O)Cc1cnccn1)C2` (centres undefined) | 4.348 | -2.496 | 2.336 | -1.651 | 3.345 | -7.392 |
| 44 | `CC(C)n1nc(CN2CCCC2=O)c2c1CN(C(=O)c1ccco1)C2` | 3.315 | -7.136 | -0.7426 | 34.48 | 4.277 | - |
| 45 | `CCN1CCCN(c2ncccc2C(=O)N2CCCCC2)CC1` | -4.082 | -43.29 | 2.788 | -8.414 | -0.2514 | 4.848 |
| 46 | `COC(=O)C1CCCCN1C(=O)c1ccccc1F` (centres undefined) | 0.5348 | -8.755 | 3.913 | 9.091 | 2.634 | -2.023 |
| 47 | `c1cnc(-c2noc(C3CN(Cc4ccsc4)C3)n2)cn1` | 3.093 | -18.02 | 4.863 | - | 3.814 | -2.052 |
| 48 | `O=C(NCCCN1CCN(c2ncccn2)CC1)NCC1CCCO1` (centres undefined) | 6.18 | -14.44 | -7.445 | 24.89 | 7.599 | -4.376 |
| 49 | `CC(C)n1cc(N2CC(C(=O)N3CCCC3)CC2=O)cn1` (centres undefined) | 9.278 | -15.26 | 12.53 | 18.74 | 2.584 | 3.507 |
| 50 | `CC(C)(C)C(=O)NCC(=O)Nc1cccnc1` | 8.808 | -53.69 | -11.98 | 39.3 | 4.499 | 1.861 |
| 51 | `CC(NC(=O)Nc1ccc(F)c(F)c1)c1nc[nH]n1` (centres undefined) | 4.651 | -2.386 | 2.146 | 2.242 | 4.661 | -0.6157 |
| 52 | `CNS(=O)(=O)Cc1ccc(CNC(=O)c2ccccn2)cc1` | 0.5747 | -19.12 | -1.161 | 3.559 | 1.435 | 2.24 |
| 53 | `O=C(c1cnc(-c2ccccc2)s1)N1CCOC2(CCCC2)C1` | -1.604 | -34.75 | 9.13 | 28.18 | 0.8252 | -1.83 |

Some entries from above, unchanged:

compound	TcHisRS	Pks13 thioesterase	CoaBC	Leishmania in macrophages	PfKRS1	MtTrpRS
CC(C)CC(=O)Nc1cc(C(=O)N(C)C(C)C)ccc1Cl	-0.5128	-14.99	1.242	20.64	-0.09596	-4.294
CC(NC(=O)Nc1ccc(F)c(F)c1)c1nc[nH]n1 (centres undefined)	4.651	-2.386	2.146	2.242	4.661	-0.6157
CN(Cc1ccc2c(c1)OCCO2)Cc1nnnn1-c1ccccc1	2.484	1.257	1.392	-13.35	2.809	0.5424
O=C(O)C(F)(F)F.[H][C@@]12OCCC[C@]1([H])N(C)C[C@@H]2NC(=O)c1cscn1	-	-	-	54.94	-	-
O=C(c1cc[nH]n1)N1CCC2(CC1)CC(Oc1cccnc1)CO2 (centres undefined)	5.6	39.55	9.979	-	4.368	-0.4188
Cc1nc(C2CCCN(C(=O)c3cc(Cl)c[nH]3)C2)no1 (centres undefined)	0	-29.04	2.571	11.07	4.468	-1.338